This note sets out measurements from publication PMC5333127, “RD26 mediates crosstalk between drought and brassinosteroid signalling pathways” (Nature Communications, 2017).

Series [1] concerns the target T1, RD26 (ANAC072) (Arabidopsis thaliana) (UniProt Q93VY3).
T1 sequence (looked up, limits assumed): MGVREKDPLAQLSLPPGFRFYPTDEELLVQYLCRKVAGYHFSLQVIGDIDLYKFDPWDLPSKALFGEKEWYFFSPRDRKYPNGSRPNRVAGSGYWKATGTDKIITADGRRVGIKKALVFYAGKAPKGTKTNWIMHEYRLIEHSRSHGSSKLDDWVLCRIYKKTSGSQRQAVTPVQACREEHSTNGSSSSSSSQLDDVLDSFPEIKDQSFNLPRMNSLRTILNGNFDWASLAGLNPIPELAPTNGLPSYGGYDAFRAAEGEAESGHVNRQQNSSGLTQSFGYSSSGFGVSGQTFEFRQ
The series can be described thus: EMSA. The settings on record: 25 mM HEPES-KOH pH 8.0, 1 mM DTT, 50 mM KCl, 10% glycerol, 20 μl, about 0.2 ng probe, 40 min on ice, 5% native PAGE in 1x TGE, recombinant protein, label: 32P 5' end. For orientation: In EMSA bound probe runs differently from free probe, usually more slowly.

In series [2] the target is T2, BES1 (Arabidopsis thaliana) (UniProt Q9LN63).
T2 sequence (looked up, limits assumed): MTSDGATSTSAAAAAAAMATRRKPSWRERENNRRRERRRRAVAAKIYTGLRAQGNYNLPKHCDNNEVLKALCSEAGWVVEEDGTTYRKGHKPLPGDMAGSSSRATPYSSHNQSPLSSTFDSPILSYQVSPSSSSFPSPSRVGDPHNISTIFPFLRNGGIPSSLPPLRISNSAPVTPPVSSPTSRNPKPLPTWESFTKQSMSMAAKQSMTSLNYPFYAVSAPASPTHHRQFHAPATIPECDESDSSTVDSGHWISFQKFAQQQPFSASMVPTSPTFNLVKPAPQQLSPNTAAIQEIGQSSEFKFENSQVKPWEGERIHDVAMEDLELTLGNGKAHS
Kind of series: EMSA. The settings on record: 25 mM HEPES-KOH pH 8.0, 1 mM DTT, 50 mM KCl, 10% glycerol, 20 μl, about 0.2 ng probe, 40 min on ice; 5% native PAGE in 1x TGE; recombinant protein; label: 32P 5' end.

Construct, isoform or probe ends are uncertain for at least one entry. A negative result means that nothing was seen under these conditions. At least one verdict was read from the data and is not stated in words by the source. Protein sequences can lack the tags named with them. For part of these data: The comparison behind a weaker result is the experiment's own reference, which may not be listed here.

On to “AAACCGAAAACACGTGTGAGAAAGAAGAAA (double strand) [At4g18010 BRRE WT]”, for which, in series [1] (weaker than BES1), the binding result was “binds more weakly”. Regarding “ATTACCTAACTATAAAAAAATAATGTGTTC (double strand) [At4g00360 E-box MU]”, the binding result in series [1] and in series [2] was “no binding” each time.
